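Whole-cell assay for inhibitors of Mycobacterium tuberculosis growth, labelled Cornell in the record; the read-out is not stated. The concentration is filed as 10 mM, unlikely as a test dose, so the dose is not known. The record gives no direction; compounds strong in two other growth screens of this library score well above the rest, so higher reads as stronger inhibition. Size under these conditions: about 53,000 compounds, about 900 of them at 50% or above in at least one test.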

Each number is a percent effect as filed. How 0% and 100% were set is not recorded. Most values in the screen are low, and negative values occur. The compounds are a random part of those screened.

structure,percent effect
Cc1nc(CCCNC(=O)Nc2ccc(F)cc2F)n[nH]1,-18.66%
COCCN1CCC(CNC(=O)C2(c3ccccc3)CCC2)C1 (stereo unspecified),9.052%
Cc1cnccc1CN(C)C(=O)c1cccc(CCC(C)(C)O)c1,-2.315%
O=C(O)C(F)(F)F.[H][C@@]12CCCO[C@]1([H])[C@@H](OCC1CC1)CN2Cc1c(C)noc1C,23.91%
Cc1ccc(CNC(=O)NC(C)CCS(C)(=O)=O)cc1F (stereo unspecified),13.51%
Cl.O=C(c1ccccc1F)N1CC2(CCNCC2)c2cc(Cl)ccc21,-39.49%
CC(=O)N1C[C@H](NS(=O)(=O)c2cccc(Cl)c2)[C@@H](C(C)C)C1,8.933%
O=C1C(Nc2nccn3cnnc23)CCCN1c1ccccc1Cl (stereo unspecified),-26.04%
CNC(=O)C1CCN(c2cc(C3CCNCC3)nc(C)n2)C1 (stereo unspecified),7.604%
Cc1noc(C)c1CC(=O)N1CCCN(C)c2ccc(Cl)cc21,16.24%
CCc1cc(-c2ccnc3c2ccn3C)nc(N2CCOCC2)n1,3.05%
N#Cc1c(-c2ccccc2)csc1N,43.28%
Cc1ncc(CN2CCOCC2)c2cc(C(=O)c3ccc(Br)cc3)oc12.Cl,21%
CC(NC(=O)N1CCC2(C1)OCCO2)c1ccc(F)cc1Cl (stereo unspecified),23.75%
Cc1cc(C(=O)N2CCCC3(COCCN(c4ncccn4)C3)C2)[nH]n1.O=C(O)C(F)(F)F.O=C(O)C(F)(F)F (stereo unspecified),26.34%
O=C(c1cc(C2CC2)[nH]n1)N1CCN(Cc2ccc(Cl)cc2)CC1,-11.68%
COc1cc(N2CCC3(CC2)OCC(=O)NC3C)ncn1 (stereo unspecified),17.24%
[H][C@]12CN(CCc3cccc(F)c3)CC[C@@]1(O)CCN(S(=O)(=O)N(C)C)C2,1.476%
CC(NC(=O)CN(C)S(C)(=O)=O)c1ccc(F)cc1 (stereo unspecified),11.65%
Cc1ncc(CN(C)C(=O)Nc2cccc(C(=O)N3CCOCC3)c2)s1,20.49%
CCN(C)S(=O)(=O)N1CCC(C(O)c2ccc(Cl)cc2)CC1 (stereo unspecified),9.355%
O=C(O)C(F)(F)F.O=C(O)C(F)(F)F.O=C1CC(c2ccncc2)C2(CCN(CCc3ccccc3)CC2)N1 (stereo unspecified),23.09%
COc1nccnc1N1CCC(C(=O)O)(n2ccc(C(C)(C)C)n2)CC1,29.87%
Cc1n[nH]c2c1C(c1cccnc1)SCC(=O)N2 (stereo unspecified),-7.441%
COc1ccc(OCC(=O)NS(=O)(=O)c2ccc(Cl)s2)cc1,6.314%
COCCN1CCN(C)C2(CCN(C(=O)c3ccnnc3)CC2)C1=O.O=C(O)C(F)(F)F,-4.842%
CC(NC(=O)NCc1ccoc1)c1ccc2c(c1)CCC(=O)N2 (stereo unspecified),-31.86%
COCCC(=O)N1CCC(c2cc3ncc(C)nc3[nH]2)CC1,15.12%
Cc1ccc(CN2CCN(Cc3ccncc3)CC2=O)cc1,0.7141%
O=C(NCC1(N2CCOCC2)CCSC1)Nc1ccccn1 (stereo unspecified),-11.88%
CN1CCC(c2cncc(Cl)n2)CC1,18.3%
N#Cc1cccnc1OC1CCN(C(=O)c2cc(C3CC3)on2)CC1,39.39%
Cc1nc(N(C)C)nc(N2CCC3(CC2)CNC(=O)O3)c1C,2.476%
CCOc1ccccc1C(=O)NCCC(O)c1ccoc1 (stereo unspecified),22.79%
Fc1ccc(CNCc2nnc3n2CC(C(F)(F)F)CC3)cc1 (stereo unspecified),-18.57%
Cc1ccc(CN2CCOC3(CCCN(C(=O)c4ccco4)C3)C2)o1 (stereo unspecified),11.29%
CCNC(=O)N(C)Cc1ccc(SC)c(OC)c1,10.62%
CN(CCO)Cc1cc(Cl)ccc1OCC(O)CN1CCCCCC1 (stereo unspecified),5.398%
Cc1ccc(CN(C(=O)NCC2CCCO2)C2CC2)o1 (stereo unspecified),4.474%
COCC(=O)NCc1cc(=O)n2c(n1)CN(Cc1ccncc1)CCC2,-7.844%
O=C(O)C(F)(F)F.c1cnc(N2CCC3(CC2)CN(CC2CC2)c2ccccc23)nc1,32.03%
[H][C@]12CN(C(C)=O)C[C@@]1([H])OCCN(S(=O)(=O)C1CC1)C2,-7.882%
CCn1ncnc1CN1CCOC(Cc2cccc3ccccc23)C1 (stereo unspecified),5.862%
COc1cccc(CNC[C@@]2(COc3cccnc3)C[C@@H](O)[C@@H](O)C2)c1.Cl.Cl,19.92%
O=C1NCC(C(=O)Nc2ncc(Cc3ccc(F)cc3F)s2)N1 (stereo unspecified),6.267%
CS(=O)(=O)N1CCCC12CCN(Cc1nccs1)CC2.O=C(O)C(F)(F)F,18.87%
CC(=O)N1CCCC(c2ccnc(Nc3cnccn3)c2)C1 (stereo unspecified),46.52%
COc1c(C)cnc(CSc2nnc(N)s2)c1C,12.13%
COc1cc(CCC(=O)N2CCC(c3cc4ncc(C)nc4[nH]3)C2)on1 (stereo unspecified),4.217%
Cc1nn(C)cc1CC(C#N)C(=O)Nc1cccc(O)c1 (stereo unspecified),18.63%
COC(=O)C1CCN(C(=O)c2nnc3ccc(C)cc3n2)CC1,-19.31%
O=C(Nc1ccccc1F)c1nn(C2CCS(=O)(=O)C2)c2c1CCCC2 (stereo unspecified),22.07%
CCS(=O)(=O)N1CCC2(CN(C(=O)c3cscn3)C2)C1,-49.66%
N[C@@H](Cc1c[nH]cn1)C(=O)N1CCC(Oc2ccc(Cl)cc2)CC1,-8.278%
CCC(=O)NCc1ccccc1Cn1ccnc1,10.87%
CCN(CCNC(=O)c1cccc(C)c1C)C1CC1,-2.124%
CC(C)CC(CCO)CNC(=O)N1CCCC1(C)C (stereo unspecified),7.436%
CC(C)Nc1ccc2c(c1)C1(CCOCC1)C(=O)N2c1ccsc1,-3.024%
CC(C)N1CCCC1c1nc(N(C)C)ncc1I (stereo unspecified),5.368%
CN(C)C(=O)c1n[nH]c2c1CCN(Cc1nccs1)C2,-0.5995%
COc1c(CNCCC(=O)NC2CCCCC2)c(C(C)C)nn1C,26.49%
CC(C1CC1)N(C)Cc1nnc(-c2ccc(Br)s2)o1 (stereo unspecified),30.47%
CCC1CN(Cc2cccc(C(=O)N(C)C)c2)CCN1CCOC (stereo unspecified),-14.35%
Cc1c(C)n(CC(O)CN2CCC(O)CC2)c2c(Cl)cccc12 (stereo unspecified),10.37%
COc1ncccc1NC(=O)N1CCCC1c1cc(C)no1 (stereo unspecified),29.84%
Cc1ccc(C)n1-c1c(C(=O)NCC(c2ccsc2)N(C)C)cnn1C (stereo unspecified),9.602%
Cc1nc(C)n(CC2CN(c3ncccc3C#N)CCO2)n1 (stereo unspecified),-8.855%
CN(C)C(=O)N1CCCC2(CCN(Cc3ccncc3)C2)C1 (stereo unspecified),3.26%
[H][C@@]12COC[C@]1([H])[C@@H](OCC1CCOCC1)CN2C(=O)c1cccn1C,0.2925%
CC(C)(O)CCc1cccc(C(=O)NCCC2CCOC2)c1 (stereo unspecified),0.3409%
COCc1nc(CNC(=O)c2cc(C)c(C)[nH]c2=O)no1,-18.29%
CN1CCOC(CNCc2cccc(OC(F)(F)F)c2)C1 (stereo unspecified),-20.36%
Cc1nc(-c2ccccc2C)n(CC(=O)NC2CCCC2)n1,-23.87%
CC(=O)N1CC(=O)N(c2cnn(C)c2)CC12CCN(Cc1ccsc1)C2.O=C(O)C(F)(F)F.O=C(O)C(F)(F)F (stereo unspecified),7.334%

The first 7 entries again:

For Cc1nc(CCCNC(=O)Nc2ccc(F)cc2F)n[nH]1 the result was -18.66%.
For COCCN1CCC(CNC(=O)C2(c3ccccc3)CCC2)C1 (stereo unspecified) the result was 9.052%.
For Cc1cnccc1CN(C)C(=O)c1cccc(CCC(C)(C)O)c1 the result was -2.315%.
For O=C(O)C(F)(F)F.[H][C@@]12CCCO[C@]1([H])[C@@H](OCC1CC1)CN2Cc1c(C)noc1C the result was 23.91%.
For Cc1ccc(CNC(=O)NC(C)CCS(C)(=O)=O)cc1F (stereo unspecified) the result was 13.51%.
For Cl.O=C(c1ccccc1F)N1CC2(CCNCC2)c2cc(Cl)ccc21 the result was -39.49%.
For CC(=O)N1C[C@H](NS(=O)(=O)c2cccc(Cl)c2)[C@@H](C(C)C)C1 the result was 8.933%.

The values are deposited in ChEMBL (CHEMBL3988442, “University of Dundee, Small-Polar-MMV Screening Library” (2021)).